{
  "source": "patent US20180338922A1",
  "about": "“FIXED DOSE FORMULATIONS” (Esperion Therapeutics, Inc., priority 2017, published 2018)",
  "origin": "cited, not measured here",
  "settings": "cited from earlier work",
  "note": "The name of at least one read-out is uncertain.",
  "data": [
    {"smiles": "CC(C)(CCCCCC(O)CCCCCC(C)(C)C(=O)O)C(=O)O", "note": "[Bempedoic acid, 8-hydroxy-2,2,14,14-tetramethylpentadecanedioic acid]", "values": [
      {"measurement": "permeability", "result": "highly permeable"}
    ]},
    {"smiles": "O=C1[C@H](CC[C@H](O)c2ccc(F)cc2)[C@@H](c2ccc(O)cc2)N1c1ccc(F)cc1", "note": "[Ezetimibe, (3R,4S)-1-(4-fluorophenyl)-3-[(3S)-3-(4-fluorophenyl)-3-hydroxypropyl]-4-(4-hydroxyphenyl) azetidin-2-one]", "values": [
      {"measurement": "permeability", "result": "highly permeable"}
    ]}
  ]
}
